Among the data in article PMC9098222 are binding values, retold here.

This test has as its target T1, Myc-tagged IRS4 (insulin receptor substrate 4), full-length (human) (UniProt O14654).
T1 sequence: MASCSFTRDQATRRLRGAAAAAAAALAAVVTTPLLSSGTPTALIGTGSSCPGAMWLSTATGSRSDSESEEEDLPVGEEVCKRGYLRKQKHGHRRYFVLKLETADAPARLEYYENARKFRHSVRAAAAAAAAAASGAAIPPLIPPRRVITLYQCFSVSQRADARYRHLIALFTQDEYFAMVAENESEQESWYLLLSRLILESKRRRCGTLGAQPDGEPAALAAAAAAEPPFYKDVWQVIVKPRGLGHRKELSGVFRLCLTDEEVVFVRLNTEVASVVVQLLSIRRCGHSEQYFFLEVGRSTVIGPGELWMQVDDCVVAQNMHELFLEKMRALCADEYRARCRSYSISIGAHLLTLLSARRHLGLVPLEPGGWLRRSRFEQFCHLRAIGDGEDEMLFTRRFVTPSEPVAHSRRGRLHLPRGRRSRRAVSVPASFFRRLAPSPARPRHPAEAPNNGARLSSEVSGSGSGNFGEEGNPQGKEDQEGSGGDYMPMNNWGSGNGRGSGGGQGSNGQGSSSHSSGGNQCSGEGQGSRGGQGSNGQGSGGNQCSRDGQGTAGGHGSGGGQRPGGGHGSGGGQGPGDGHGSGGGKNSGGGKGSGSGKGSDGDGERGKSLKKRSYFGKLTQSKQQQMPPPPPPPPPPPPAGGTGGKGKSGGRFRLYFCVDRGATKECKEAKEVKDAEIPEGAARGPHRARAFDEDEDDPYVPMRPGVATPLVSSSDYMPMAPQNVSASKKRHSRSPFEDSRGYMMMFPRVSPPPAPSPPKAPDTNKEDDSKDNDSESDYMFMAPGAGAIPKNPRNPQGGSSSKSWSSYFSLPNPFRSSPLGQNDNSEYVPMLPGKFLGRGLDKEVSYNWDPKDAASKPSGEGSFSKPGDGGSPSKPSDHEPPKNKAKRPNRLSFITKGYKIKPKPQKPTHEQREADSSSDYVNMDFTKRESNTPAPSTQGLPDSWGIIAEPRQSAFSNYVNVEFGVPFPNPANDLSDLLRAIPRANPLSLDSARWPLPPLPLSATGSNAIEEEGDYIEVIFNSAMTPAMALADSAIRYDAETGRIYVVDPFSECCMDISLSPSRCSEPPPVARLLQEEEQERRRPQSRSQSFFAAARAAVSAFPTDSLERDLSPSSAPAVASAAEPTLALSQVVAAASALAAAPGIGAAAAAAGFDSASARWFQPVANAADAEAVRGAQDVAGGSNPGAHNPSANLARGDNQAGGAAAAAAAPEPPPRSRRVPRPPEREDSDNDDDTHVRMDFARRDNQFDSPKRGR
In words: co-IP; HEK293FT cells transiently co-transfected; lysis in 20 mM HEPES pH 7.5, 150 mM NaCl, 1% Nonidet P-40, 1 mM sodium orthovanadate; Myc-tagged IRS4 form precipitated with anti-Myc resin, partners found by immunoblot; some panels with or without co-expressed FLAG-IRS1, FLAG-PIK3R1 or FER.

These are yes or no findings as the source states them, for the method shown. In cells and extracts the contact can be indirect. Some results given as binding are weak or reduced against the parent protein; the word gives no strength. Tags and fused reporters may be left off the sequences shown.

B1: FER-K591R (kinase-dead mutant) (enzyme, UniProt P16591 1-822)
chain: MGFGSDLKNSHEAVLKLQDWELRLLETVKKFMALRIKSDKEYASTLQNLCNQVDKESTVQMNYVSNVSKSWLLMIQQTEQLSRIMKTHAEDLNSGPLHRLTMMIKDKQQVKKSYIGVHQQIEAEMIKVTKTELEKLKCSYRQLIKEMNSAKEKYKEALAKGKETEKAKERYDKATMKLHMLHNQYVLALKGAQLHQNQYYDITLPLLLDSLQKMQEEMIKALKGIFDEYSQITSLVTEEIVNVHKEIQMSVEQIDPSTEYNNFIDVHRTTAAKEQEIEFDTSLLEENENLQANEIMWNNLTAESLQVMLKTLAEELMQTQQMLLNKEEAVLELEKRIEESSETCEKKSDIVLLLSQKQALEELKQSVQQLRCTEAKFSAQKELLEQKVQENDGKEPPPVVNYEEDARSVTSMERKERLSKFESIRHSIAGIIRSPKSALGSSALSDMISISEKPLAEQDWYHGAIPRIEAQELLKKQGDFLVRESHGKPGEYVLSVYSDGQRRHFIIQYVDNMYRFEGTGFSNIPQLIDHHYTTKQVITKKSGVVLLNPIPKDKKWILSHEDVILGELLGKGNFGEVYKGTLKDKTSVAVRTCKEDLPQELKIKFLQEAKILKQYDHPNIVKLIGVCTQRQPVYIIMELVSGGDFLTFLRRKKDELKLKQLVKFSLDAAAGMLYLESKNCIHRDLAARNCLVGENNVLKISDFGMSRQEDGGVYSSSGLKQIPIKWTAPEALNYGRYSSESDVWSFGILLWETFSLGVCPYPGMTNQQAREQVERGYRMSAPQHCPEDISKIMMKCWDYKPENRPKFSELQKELTIIKRKLT
As for B1, the binding entry was “binds”.

B2: FER Y634F (enzyme, UniProt P16591 1-822)
chain: MGFGSDLKNSHEAVLKLQDWELRLLETVKKFMALRIKSDKEYASTLQNLCNQVDKESTVQMNYVSNVSKSWLLMIQQTEQLSRIMKTHAEDLNSGPLHRLTMMIKDKQQVKKSYIGVHQQIEAEMIKVTKTELEKLKCSYRQLIKEMNSAKEKYKEALAKGKETEKAKERYDKATMKLHMLHNQYVLALKGAQLHQNQYYDITLPLLLDSLQKMQEEMIKALKGIFDEYSQITSLVTEEIVNVHKEIQMSVEQIDPSTEYNNFIDVHRTTAAKEQEIEFDTSLLEENENLQANEIMWNNLTAESLQVMLKTLAEELMQTQQMLLNKEEAVLELEKRIEESSETCEKKSDIVLLLSQKQALEELKQSVQQLRCTEAKFSAQKELLEQKVQENDGKEPPPVVNYEEDARSVTSMERKERLSKFESIRHSIAGIIRSPKSALGSSALSDMISISEKPLAEQDWYHGAIPRIEAQELLKKQGDFLVRESHGKPGEYVLSVYSDGQRRHFIIQYVDNMYRFEGTGFSNIPQLIDHHYTTKQVITKKSGVVLLNPIPKDKKWILSHEDVILGELLGKGNFGEVYKGTLKDKTSVAVKTCKEDLPQELKIKFLQEAKILKQYDHPNIVKLIGVCTQRQPVFIIMELVSGGDFLTFLRRKKDELKLKQLVKFSLDAAAGMLYLESKNCIHRDLAARNCLVGENNVLKISDFGMSRQEDGGVYSSSGLKQIPIKWTAPEALNYGRYSSESDVWSFGILLWETFSLGVCPYPGMTNQQAREQVERGYRMSAPQHCPEDISKIMMKCWDYKPENRPKFSELQKELTIIKRKLT
Take B2: the binding result is “binds”.

B3: GFP-FER 447–822 (SH2+ kinase domains) (domain or fragment, UniProt P16591 447-822)
chain: MISISEKPLAEQDWYHGAIPRIEAQELLKKQGDFLVRESHGKPGEYVLSVYSDGQRRHFIIQYVDNMYRFEGTGFSNIPQLIDHHYTTKQVITKKSGVVLLNPIPKDKKWILSHEDVILGELLGKGNFGEVYKGTLKDKTSVAVKTCKEDLPQELKIKFLQEAKILKQYDHPNIVKLIGVCTQRQPVYIIMELVSGGDFLTFLRRKKDELKLKQLVKFSLDAAAGMLYLESKNCIHRDLAARNCLVGENNVLKISDFGMSRQEDGGVYSSSGLKQIPIKWTAPEALNYGRYSSESDVWSFGILLWETFSLGVCPYPGMTNQQAREQVERGYRMSAPQHCPEDISKIMMKCWDYKPENRPKFSELQKELTIIKRKLT
With B3, the binding entry is given as “binds”.
